According to paper PMC8313131:
Results are given in words; binding and its absence hold for the method and conditions named. For some assays here: Binding seen in cells or lysates may run through a third protein. Some entries that bind do so weakly or less than the wild type. For some assays here: Sequences can lack the tags named with a protein.

How the values were obtained:
[1] = target: T1, OsHox32 (rice (Oryza sativa L.)) (UniProt Q6AST1); experiment: two-hybrid; yeast two-hybrid (Clontech), pGBKT7 and pGADT7 constructs; growth on synthetic complete medium lacking Trp, Leu, His and Ade
T1 sequence: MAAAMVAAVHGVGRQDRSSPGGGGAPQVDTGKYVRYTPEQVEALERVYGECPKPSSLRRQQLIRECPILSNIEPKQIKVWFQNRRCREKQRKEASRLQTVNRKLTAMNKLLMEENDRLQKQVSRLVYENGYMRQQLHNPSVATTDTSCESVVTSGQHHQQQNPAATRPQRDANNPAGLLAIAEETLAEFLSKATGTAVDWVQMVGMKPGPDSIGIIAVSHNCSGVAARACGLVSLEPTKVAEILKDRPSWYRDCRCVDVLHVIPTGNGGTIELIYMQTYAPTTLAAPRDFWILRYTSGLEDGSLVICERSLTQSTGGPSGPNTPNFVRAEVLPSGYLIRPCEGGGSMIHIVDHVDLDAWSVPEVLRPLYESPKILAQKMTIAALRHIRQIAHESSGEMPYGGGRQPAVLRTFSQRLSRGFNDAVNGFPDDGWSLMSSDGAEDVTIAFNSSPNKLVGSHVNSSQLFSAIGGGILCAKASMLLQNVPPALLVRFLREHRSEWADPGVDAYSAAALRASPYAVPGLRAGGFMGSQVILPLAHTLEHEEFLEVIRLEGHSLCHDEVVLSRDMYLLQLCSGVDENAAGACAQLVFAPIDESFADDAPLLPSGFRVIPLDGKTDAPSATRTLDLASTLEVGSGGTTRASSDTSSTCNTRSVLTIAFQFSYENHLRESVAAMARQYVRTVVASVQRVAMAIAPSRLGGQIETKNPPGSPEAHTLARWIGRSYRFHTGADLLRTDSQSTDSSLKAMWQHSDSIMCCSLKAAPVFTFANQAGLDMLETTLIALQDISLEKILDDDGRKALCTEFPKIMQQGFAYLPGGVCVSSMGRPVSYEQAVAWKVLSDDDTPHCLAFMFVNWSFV

[2] = target: T2, OsHox32‐nYFP fusion protein (rice (Oryza sativa L.)) (UniProt Q6AST1); experiment: split reporter; BiFC: OsHox32‐nYFP and OSH15‐cYFP co-transfected into Arabidopsis protoplast cells, 23 °C for 16 h, YFP fluorescence by microscopy
T2 sequence: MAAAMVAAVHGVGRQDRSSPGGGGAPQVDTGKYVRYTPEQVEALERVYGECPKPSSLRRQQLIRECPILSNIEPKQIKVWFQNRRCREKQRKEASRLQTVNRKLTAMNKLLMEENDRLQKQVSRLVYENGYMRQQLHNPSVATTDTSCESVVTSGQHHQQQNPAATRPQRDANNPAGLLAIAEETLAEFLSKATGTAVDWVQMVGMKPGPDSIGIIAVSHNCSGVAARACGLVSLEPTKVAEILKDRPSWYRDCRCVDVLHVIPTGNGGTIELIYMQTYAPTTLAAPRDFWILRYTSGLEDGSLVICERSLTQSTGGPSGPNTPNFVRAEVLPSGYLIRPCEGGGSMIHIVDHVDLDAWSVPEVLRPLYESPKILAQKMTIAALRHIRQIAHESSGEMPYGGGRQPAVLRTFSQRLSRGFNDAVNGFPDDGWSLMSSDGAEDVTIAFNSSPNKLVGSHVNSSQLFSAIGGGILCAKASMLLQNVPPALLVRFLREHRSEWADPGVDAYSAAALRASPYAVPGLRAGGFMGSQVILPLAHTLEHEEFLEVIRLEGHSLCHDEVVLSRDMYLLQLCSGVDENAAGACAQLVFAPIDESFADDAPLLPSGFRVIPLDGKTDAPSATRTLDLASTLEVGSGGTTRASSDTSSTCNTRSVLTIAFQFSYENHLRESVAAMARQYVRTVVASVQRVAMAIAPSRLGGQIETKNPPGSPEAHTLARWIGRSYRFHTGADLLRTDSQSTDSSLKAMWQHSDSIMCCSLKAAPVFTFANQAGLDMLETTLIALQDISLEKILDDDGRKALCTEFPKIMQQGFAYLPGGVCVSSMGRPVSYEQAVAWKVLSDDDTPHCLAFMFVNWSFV

B1: OSH15 (Oryza sativa homeobox 15) (protein, UniProt O80416 1-355)
chain: MDQSFGNLGGGGGAGGSGKAAASSFLQLPLSTAAAATAYYGTPLALHQAAAAAGPSQYHGHGHPHHGGGHHHSKHGGAGGGEISAAEAESIKAKIMAHPQYSALLAAYLDCQKVGAPPEVLERLTATAAKLDARPPGRHDARDPELDQFMEAYCNMLAKYREELTRPIDEAMEFLKRVESQLDTIAGGAHGGGAGSARLLLADGKSECVGSSEDDMDPSGRENEPPEIDPRAEDKELKFQLLKKYSGYLSSLRQEFSKKKKKGKLPKEARQKLLHWWELHYKWPYPSETEKIALAESTGLDQKQINNWFINQRKRHWKPSEDMPFVMMEGFHPQNAAALYMDGPFMADGMYRLGS
- binding [1]: binds

B2: OSH15‐cYFP fusion protein (protein, UniProt O80416 1-355)
chain: MDQSFGNLGGGGGAGGSGKAAASSFLQLPLSTAAAATAYYGTPLALHQAAAAAGPSQYHGHGHPHHGGGHHHSKHGGAGGGEISAAEAESIKAKIMAHPQYSALLAAYLDCQKVGAPPEVLERLTATAAKLDARPPGRHDARDPELDQFMEAYCNMLAKYREELTRPIDEAMEFLKRVESQLDTIAGGAHGGGAGSARLLLADGKSECVGSSEDDMDPSGRENEPPEIDPRAEDKELKFQLLKKYSGYLSSLRQEFSKKKKKGKLPKEARQKLLHWWELHYKWPYPSETEKIALAESTGLDQKQINNWFINQRKRHWKPSEDMPFVMMEGFHPQNAAALYMDGPFMADGMYRLGS
- binding [2]: binds
